Source: PMC12048626
Where two headings read alike, the source gives them in different places. No constants are given. Whether binding was seen depends on the method and setting. Binding seen in cells or lysates may run through a third protein. Some results given as binding are weak or reduced against the parent protein; the word gives no strength. For part of these data: Tags and fused reporters may be left off the sequences shown.

Protein sequences, listed by entry. Tags and fused reporters are not part of them. Lines headed by an entry give the natural chain unless they say otherwise; changes in a name come on top. Residues count along the entry.
UniProt Q96PU5: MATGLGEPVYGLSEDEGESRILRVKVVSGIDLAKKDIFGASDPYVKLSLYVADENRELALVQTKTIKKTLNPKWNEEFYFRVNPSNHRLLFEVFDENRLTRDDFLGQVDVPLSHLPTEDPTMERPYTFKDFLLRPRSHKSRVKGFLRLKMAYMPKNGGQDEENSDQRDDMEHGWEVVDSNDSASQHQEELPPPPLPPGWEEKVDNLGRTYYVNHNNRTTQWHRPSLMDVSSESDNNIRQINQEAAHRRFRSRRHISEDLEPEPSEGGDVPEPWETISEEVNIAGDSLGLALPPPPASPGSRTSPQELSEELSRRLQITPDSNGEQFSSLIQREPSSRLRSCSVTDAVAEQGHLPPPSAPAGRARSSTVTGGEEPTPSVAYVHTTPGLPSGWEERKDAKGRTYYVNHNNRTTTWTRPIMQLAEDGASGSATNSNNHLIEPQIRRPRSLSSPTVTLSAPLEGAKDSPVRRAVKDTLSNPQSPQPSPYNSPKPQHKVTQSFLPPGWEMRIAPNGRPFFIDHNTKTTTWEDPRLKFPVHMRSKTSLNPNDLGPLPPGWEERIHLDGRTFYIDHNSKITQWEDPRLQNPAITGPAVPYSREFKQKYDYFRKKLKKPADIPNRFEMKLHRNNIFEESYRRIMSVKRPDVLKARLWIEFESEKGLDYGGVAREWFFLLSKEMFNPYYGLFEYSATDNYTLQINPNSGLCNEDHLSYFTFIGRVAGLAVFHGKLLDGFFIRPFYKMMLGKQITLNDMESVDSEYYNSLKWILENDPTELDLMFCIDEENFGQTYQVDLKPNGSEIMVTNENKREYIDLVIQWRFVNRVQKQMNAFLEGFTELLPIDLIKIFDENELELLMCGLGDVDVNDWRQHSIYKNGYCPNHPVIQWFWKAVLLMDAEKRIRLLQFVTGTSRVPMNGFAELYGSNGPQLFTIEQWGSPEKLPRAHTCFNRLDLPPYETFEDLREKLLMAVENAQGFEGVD
UniProt P46934: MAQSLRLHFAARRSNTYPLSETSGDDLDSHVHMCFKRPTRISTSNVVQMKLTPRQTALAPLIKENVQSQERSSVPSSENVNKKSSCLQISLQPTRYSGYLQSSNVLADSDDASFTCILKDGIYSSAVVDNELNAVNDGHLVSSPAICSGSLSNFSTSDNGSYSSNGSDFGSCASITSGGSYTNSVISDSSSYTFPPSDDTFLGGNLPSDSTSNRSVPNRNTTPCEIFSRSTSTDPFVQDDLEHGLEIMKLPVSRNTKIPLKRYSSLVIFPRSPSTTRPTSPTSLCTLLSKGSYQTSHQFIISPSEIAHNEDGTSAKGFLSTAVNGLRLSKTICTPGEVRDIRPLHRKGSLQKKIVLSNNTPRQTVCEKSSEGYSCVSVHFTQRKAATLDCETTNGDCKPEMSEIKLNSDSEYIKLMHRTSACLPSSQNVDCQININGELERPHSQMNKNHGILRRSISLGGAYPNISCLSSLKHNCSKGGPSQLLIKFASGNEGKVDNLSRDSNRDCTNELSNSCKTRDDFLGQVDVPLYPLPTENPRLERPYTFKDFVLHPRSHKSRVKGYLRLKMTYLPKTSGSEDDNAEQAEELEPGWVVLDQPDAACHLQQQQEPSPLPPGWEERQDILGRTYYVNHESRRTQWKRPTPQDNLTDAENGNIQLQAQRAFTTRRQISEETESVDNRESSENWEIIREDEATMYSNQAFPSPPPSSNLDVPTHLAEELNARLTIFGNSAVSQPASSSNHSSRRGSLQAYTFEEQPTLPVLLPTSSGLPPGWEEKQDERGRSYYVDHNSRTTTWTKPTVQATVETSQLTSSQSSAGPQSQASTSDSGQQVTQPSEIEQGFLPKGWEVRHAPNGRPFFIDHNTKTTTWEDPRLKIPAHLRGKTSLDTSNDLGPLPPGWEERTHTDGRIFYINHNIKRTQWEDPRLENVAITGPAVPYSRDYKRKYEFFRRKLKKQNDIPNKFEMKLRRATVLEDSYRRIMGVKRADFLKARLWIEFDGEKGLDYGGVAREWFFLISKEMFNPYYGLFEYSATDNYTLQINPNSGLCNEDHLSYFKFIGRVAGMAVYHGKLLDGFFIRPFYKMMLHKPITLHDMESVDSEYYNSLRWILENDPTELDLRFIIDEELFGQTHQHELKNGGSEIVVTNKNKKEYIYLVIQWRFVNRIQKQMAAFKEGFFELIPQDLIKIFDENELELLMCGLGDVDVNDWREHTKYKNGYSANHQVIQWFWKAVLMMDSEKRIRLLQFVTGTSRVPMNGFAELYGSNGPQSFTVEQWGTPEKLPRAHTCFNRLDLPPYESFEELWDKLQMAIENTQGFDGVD
Flag-NEDD4-1 (AAs: 1-930): residues 1-930 of P46934
UniProt Q96J02: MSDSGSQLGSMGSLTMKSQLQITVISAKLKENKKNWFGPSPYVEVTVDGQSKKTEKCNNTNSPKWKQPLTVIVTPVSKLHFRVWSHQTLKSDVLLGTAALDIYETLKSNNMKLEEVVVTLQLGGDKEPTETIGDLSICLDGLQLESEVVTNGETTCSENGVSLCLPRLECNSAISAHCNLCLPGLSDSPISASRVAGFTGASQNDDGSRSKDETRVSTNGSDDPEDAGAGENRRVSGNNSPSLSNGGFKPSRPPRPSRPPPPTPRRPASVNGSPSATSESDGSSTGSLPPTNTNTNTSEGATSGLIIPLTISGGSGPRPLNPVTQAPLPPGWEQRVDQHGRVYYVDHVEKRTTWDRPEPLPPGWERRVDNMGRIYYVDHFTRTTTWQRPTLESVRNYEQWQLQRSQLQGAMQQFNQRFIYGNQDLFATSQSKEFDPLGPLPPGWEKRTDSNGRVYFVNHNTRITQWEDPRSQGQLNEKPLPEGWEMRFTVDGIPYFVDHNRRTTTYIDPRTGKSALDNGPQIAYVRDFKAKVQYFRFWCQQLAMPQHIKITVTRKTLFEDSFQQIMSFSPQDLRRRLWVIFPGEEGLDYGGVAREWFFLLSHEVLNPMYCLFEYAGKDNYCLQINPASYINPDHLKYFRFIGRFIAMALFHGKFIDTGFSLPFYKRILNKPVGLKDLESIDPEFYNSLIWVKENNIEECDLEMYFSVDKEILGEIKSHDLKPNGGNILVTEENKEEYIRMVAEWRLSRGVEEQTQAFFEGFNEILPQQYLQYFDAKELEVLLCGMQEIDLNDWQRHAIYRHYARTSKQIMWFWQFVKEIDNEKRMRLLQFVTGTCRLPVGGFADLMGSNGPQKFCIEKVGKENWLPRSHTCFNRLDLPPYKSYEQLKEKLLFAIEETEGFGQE
UniProt O00308: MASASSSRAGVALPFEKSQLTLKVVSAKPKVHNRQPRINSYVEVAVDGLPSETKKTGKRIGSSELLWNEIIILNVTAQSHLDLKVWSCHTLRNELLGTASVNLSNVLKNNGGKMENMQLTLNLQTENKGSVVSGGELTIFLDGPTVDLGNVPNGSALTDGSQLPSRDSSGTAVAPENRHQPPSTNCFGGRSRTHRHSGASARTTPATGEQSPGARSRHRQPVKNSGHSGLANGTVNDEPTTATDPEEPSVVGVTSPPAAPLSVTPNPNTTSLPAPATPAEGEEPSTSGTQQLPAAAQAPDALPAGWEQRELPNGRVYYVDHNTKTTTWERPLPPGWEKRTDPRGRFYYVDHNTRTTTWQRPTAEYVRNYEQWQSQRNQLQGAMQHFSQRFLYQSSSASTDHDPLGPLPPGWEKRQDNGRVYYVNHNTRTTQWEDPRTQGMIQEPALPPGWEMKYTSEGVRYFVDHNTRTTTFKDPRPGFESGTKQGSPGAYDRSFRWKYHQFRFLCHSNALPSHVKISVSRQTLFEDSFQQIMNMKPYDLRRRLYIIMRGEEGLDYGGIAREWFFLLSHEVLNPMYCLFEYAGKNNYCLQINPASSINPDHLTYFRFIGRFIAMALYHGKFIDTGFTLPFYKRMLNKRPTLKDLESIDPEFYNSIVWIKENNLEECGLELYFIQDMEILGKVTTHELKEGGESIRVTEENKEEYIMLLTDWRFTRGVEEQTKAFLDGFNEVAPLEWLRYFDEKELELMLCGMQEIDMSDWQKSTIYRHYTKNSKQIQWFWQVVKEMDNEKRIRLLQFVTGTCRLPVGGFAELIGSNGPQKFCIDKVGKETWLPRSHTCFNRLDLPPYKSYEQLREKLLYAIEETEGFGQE
UniProt Q9P2P5: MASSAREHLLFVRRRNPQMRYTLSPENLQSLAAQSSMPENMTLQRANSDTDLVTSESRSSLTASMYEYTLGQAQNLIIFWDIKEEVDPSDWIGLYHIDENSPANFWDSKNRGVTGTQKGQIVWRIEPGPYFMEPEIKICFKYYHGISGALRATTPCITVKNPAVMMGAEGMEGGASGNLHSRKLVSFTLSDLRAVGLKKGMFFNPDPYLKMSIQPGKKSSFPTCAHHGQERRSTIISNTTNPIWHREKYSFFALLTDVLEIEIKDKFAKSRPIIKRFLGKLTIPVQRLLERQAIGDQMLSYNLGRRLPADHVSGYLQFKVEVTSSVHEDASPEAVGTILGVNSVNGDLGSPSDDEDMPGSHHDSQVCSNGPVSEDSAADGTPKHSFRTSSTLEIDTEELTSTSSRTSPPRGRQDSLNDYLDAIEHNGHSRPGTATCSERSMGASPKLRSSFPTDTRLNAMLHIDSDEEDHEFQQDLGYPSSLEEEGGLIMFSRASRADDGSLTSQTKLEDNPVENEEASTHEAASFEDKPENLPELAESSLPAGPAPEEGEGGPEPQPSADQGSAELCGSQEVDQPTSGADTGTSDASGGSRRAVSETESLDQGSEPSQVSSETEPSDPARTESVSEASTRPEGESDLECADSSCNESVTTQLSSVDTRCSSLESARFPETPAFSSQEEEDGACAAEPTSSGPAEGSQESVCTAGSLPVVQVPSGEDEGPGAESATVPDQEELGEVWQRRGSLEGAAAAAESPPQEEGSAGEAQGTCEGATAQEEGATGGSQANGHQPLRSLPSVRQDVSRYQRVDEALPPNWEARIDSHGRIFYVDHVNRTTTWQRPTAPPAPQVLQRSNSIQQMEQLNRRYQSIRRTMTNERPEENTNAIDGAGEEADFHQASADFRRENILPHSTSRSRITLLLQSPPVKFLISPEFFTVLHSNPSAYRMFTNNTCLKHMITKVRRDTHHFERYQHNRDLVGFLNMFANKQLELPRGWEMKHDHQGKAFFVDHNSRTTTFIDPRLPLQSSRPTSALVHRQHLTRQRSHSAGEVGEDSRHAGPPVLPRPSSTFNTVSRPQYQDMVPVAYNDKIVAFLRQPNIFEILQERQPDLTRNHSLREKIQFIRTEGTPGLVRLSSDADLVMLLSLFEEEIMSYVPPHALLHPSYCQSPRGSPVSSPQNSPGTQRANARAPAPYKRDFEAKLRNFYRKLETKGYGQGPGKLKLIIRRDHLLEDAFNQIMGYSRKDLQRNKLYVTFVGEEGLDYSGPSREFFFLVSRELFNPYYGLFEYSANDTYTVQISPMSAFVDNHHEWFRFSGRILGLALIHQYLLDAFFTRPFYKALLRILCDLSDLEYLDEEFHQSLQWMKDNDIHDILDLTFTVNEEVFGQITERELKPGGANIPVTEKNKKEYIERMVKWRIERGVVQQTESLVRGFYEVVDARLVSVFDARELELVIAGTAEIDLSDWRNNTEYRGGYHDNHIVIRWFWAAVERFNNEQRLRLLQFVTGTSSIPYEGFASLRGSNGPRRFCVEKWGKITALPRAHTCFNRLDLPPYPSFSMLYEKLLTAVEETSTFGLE
UniProt Q16665: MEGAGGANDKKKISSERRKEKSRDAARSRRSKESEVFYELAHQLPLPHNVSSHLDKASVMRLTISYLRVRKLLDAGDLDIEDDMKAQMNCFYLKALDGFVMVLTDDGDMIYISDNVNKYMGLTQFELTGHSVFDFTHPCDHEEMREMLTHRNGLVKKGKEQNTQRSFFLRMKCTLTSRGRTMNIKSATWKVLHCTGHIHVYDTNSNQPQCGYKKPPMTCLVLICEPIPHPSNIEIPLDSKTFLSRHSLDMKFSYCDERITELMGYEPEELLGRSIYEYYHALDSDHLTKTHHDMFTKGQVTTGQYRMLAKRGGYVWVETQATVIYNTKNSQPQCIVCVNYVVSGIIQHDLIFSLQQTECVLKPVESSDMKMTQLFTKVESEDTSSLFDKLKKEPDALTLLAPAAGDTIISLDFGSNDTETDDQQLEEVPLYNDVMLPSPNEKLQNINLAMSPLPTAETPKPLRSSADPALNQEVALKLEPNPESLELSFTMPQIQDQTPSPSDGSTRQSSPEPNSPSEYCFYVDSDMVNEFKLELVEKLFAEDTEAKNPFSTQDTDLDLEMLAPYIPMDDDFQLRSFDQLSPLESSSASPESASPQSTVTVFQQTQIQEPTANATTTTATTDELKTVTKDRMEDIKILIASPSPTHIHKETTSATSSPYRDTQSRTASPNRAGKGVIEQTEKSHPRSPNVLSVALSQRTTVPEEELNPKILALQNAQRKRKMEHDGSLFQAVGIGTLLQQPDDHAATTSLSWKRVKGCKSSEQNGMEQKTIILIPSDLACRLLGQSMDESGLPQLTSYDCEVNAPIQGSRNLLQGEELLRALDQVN

Tests used:
Flag-NEDD4L (human) = Flag-NEDD4L (human) (UniProt Q96PU5); assay: co-IP; exogenous co-IP: tagged proteins co-transfected in DLD1 cells, lysed 24 h later in Pierce IP lysis buffer, anti-FLAG M2 Affinity Gel or antibody plus protein A/G beads, 4 °C overnight; MG132 (5 μM, 6 h) as indicated; normoxia or hypoxia (1% O2, last 2 h or indicated time); some panels in shNEDD4, shPPA2 or shSIRT5 cells
Flag-NEDD4 T758A (human) = Flag-NEDD4 T758A (human) (UniProt P46934); assay: as above
Flag-ITCH (human) = Flag-ITCH (human) (UniProt Q96J02); assay: as above
[1] = target: T1, Flag-PPA2 WT (inorganic pyrophosphatase 2) (human) (UniProt Q9H2U2); assay: as above
T1 sequence: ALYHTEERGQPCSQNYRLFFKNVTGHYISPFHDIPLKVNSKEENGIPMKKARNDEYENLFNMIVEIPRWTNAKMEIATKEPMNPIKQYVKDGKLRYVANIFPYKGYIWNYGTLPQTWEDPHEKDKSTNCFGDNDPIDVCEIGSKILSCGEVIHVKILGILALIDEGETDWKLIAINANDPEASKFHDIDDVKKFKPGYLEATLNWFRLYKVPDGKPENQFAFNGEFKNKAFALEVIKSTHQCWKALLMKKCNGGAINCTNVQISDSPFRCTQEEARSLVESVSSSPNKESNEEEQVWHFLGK

Flag-WWP2 (human) = Flag-WWP2 (human) (UniProt O00308); assay: as above
Flag-Smurf1 (human) = Flag-Smurf1 (human) (UniProt Q9HCE7); assay: as above
Flag-HECW1 (human) = Flag-HECW1 (human) (UniProt Q76N89); assay: as above
Flag-HECW2 (human) = Flag-HECW2 (human) (UniProt Q9P2P5); assay: as above
Flag-WWP1 (human) = Flag-WWP1 (human) (UniProt Q9H0M0); assay: as above
[2] = target: Flag-NEDD4-FL (full length) (human) (UniProt P46934); assay: as above
[3] = target: Flag-HIF-1α (hypoxia-inducible factor 1 alpha) (human) (UniProt Q16665); assay: as above
[4] = target: T2, PPA2, endogenous (human (endogenous in DLD1)) (UniProt Q9H2U2); assay: co-IP; endogenous co-IP: untransfected DLD1 cells under normoxia or hypoxia, lysate with antibody plus protein A/G beads, 4 °C overnight
T2 sequence: T1 sequence

HA-NEDD4 (human) = HA-NEDD4 (human) (UniProt P46934); assay: co-IP; exogenous co-IP: tagged proteins co-transfected in DLD1 cells, lysed 24 h later in Pierce IP lysis buffer, anti-FLAG M2 Affinity Gel or antibody plus protein A/G beads, 4 °C overnight; MG132 (5 μM, 6 h) as indicated; normoxia or hypoxia (1% O2, last 2 h or indicated time); some panels in shNEDD4, shPPA2 or shSIRT5 cells
[5] = target: Flag-NEDD4-1 (AAs: 1-930) (human) (UniProt P46934); assay: as above
[6] = target: Flag-HIF-1α (hypoxia-inducible factor 1 alpha) (human) (UniProt Q16665); assay: as above; remark: listed apart in the source
[7] = target: HA-HIF-1α (hypoxia-inducible factor 1 alpha) (human) (UniProt Q16665); assay: as above
[8] = target: Flag-NEDD4-FL (full length) (human) (UniProt P46934); assay: as above; remark: listed apart in the source

Q: “HA-HIF-1α (hypoxia-inducible factor 1 alpha) (from UniProt Q16665 1-826)” was tested. Which binding (Flag-NEDD4L (human)) did it give?
A: The binding was “binds”.

Q: And the binding (Flag-NEDD4 T758A (human))?
A: The binding was “binds”.

Q: And the binding (Flag-ITCH (human))?
A: The binding was “no binding”.

Q: What about the binding [1] of the same molecule?
A: The binding was “binds”.

Q: And the binding (Flag-WWP2 (human))?
A: Its binding is “binds”.

Q: And the binding (Flag-Smurf1 (human))?
A: Its binding is “no binding”.

Q: And the binding (Flag-HECW1 (human))?
A: The binding was “no binding”.

Q: What about the binding (Flag-HECW2 (human)) of the same molecule?
A: Its binding is “no binding”.

Q: And the binding (Flag-WWP1 (human))?
A: Its binding is “no binding”.

Q: What about the binding [2] of the same molecule?
A: The binding was “binds”.

Q: For “HA-NEDD4 (from UniProt P46934 1-1319) (enzyme)”, which binding [1] is on record?
A: Its binding is “binds”.

Q: What about the binding [3] of the same molecule?
A: Its binding is “binds”.

Q: With “NEDD4, endogenous (from UniProt P46934 1-1319) (enzyme)” as the molecule, how does the binding [4] read?
A: Its binding is “binds”.

B1: Myc-PPA2 (inorganic pyrophosphatase 2) (enzyme, UniProt Q9H2U2 33-334)
chain: T1 sequence
Q: Which results are given for B1?
A: binding (HA-NEDD4 (human)): binds; binding [5]: binds; binding [6]: binds; binding [7]: binds; binding [8]: binds
